This note sets out measurements from publication PMC11879112.

This test addresses T1, GFP-tagged FASTKD4 (UniProt Q969Z0).
T1 sequence: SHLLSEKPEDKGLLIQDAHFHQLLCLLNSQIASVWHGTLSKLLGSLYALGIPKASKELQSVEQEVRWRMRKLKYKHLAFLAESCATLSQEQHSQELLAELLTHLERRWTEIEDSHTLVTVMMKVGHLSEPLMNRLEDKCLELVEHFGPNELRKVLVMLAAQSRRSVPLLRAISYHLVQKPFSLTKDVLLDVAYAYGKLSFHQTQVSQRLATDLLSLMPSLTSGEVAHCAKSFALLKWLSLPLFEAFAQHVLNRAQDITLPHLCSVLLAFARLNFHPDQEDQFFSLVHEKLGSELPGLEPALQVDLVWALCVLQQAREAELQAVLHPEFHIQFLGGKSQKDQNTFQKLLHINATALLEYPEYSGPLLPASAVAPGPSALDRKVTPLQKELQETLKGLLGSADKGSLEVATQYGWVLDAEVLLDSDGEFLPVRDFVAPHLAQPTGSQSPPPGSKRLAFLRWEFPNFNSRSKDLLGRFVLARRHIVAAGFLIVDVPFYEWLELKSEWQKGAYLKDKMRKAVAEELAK
In words: co-IP; GFP-tagged FASTKD4 from transfected 143B (WT) cells on GFP-Trap Dynabeads, 2 h at 4°C; lysis in 260 mM sucrose, 100 mM KCl, 20 mM MgCl2, 10 mM Tris-HCl pH 7.5, 1% digitonin; immunoblot. On the technique in general: A western blot detects proteins with antibodies after separation by electrophoresis.

Results are given in words; binding and its absence hold for the method and conditions named. Binding seen in cells or lysates may run through a third protein. Sequences can lack the tags named with a protein.

For the substance SLIRP (human (endogenous in 143B)), the binding entry is recorded as “no binding”.
